For test [1], the target named is FLAG-tagged HIF-1α (hypoxia-inducible factor-1α) (UniProt Q16665). Nature of the test: co-IP; Flag antibody covalently coupled to amine-reactive resin (Pierce Co-IP kit) on lysate of ACHN cells overexpressing FLAG-tagged HIF-1α and CXCR4-EGFP, CXCR4-mNLS-EGFP or EGFP; western blot. For orientation: In western blotting, separated proteins are transferred to a membrane and probed.

Amino acid sequences for entries named in this document (tags omitted). A change or cut given only in a name is not applied to a line headed by its entry.
UniProt Q16665: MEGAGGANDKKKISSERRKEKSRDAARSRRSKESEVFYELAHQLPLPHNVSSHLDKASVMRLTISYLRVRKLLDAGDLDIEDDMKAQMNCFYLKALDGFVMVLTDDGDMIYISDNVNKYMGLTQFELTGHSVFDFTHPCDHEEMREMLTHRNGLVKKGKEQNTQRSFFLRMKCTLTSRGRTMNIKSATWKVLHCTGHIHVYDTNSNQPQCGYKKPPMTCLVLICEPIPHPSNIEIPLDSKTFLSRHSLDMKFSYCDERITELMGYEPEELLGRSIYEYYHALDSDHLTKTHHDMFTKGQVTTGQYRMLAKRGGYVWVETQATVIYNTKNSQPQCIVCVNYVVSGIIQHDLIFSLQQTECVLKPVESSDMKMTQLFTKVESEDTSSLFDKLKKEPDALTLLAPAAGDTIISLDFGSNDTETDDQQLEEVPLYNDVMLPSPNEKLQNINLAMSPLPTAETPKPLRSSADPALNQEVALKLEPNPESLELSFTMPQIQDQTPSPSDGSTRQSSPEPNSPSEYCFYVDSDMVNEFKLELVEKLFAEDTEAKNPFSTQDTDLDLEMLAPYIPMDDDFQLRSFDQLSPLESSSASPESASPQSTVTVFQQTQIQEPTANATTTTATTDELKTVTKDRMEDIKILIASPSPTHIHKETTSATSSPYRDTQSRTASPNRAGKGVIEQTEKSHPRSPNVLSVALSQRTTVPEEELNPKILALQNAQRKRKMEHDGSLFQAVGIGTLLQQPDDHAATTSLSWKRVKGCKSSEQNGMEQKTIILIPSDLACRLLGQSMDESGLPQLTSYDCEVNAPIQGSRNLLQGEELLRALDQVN
UniProt P61073: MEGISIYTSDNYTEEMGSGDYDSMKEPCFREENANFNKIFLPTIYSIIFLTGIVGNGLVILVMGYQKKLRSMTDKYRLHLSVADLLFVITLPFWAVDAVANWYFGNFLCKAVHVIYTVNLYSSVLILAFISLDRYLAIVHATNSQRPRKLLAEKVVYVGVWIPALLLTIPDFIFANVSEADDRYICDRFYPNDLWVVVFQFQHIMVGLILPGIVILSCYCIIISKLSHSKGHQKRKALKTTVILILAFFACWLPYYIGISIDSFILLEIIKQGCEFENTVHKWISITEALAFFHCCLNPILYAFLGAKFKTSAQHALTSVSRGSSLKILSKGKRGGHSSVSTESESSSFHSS

Test [2] deals with CXCR4-EGFP (CXC chemokine receptor 4 tagged with enhanced green fluorescent protein at the C-terminus) (human) (UniProt P61073). Nature of the test: co-IP; GFP-Trap A beads (ChromoTek) on lysate of ACHN cells overexpressing FLAG-tagged HIF-1α and CXCR4-EGFP, CXCR4-mNLS-EGFP or EGFP; precipitates analysed by western blot.
For test [3], the target named is CXCR4-mNLS-EGFP (CXCR4 with the nuclear localization sequence 146-RPRK-149 mutated to AAAA, tagged with EGFP at the C-terminus) (human) (UniProt P61073). Described as above.
Test [4] deals with CXCR4 (endogenous, ACHN cells) (human (endogenous in ACHN)) (UniProt P61073). Nature of the test: proximity ligation; Duolink assay on fixed ACHN cells, serum-starved 12 h, without or with CXCL12 (200 ng/ml, 24 h); rabbit anti-CXCR4 and mouse anti-HIF-1α antibodies with PLA probes; signal when the distance is less than 40 nm.

Results are given in words; binding and its absence hold for the method and conditions named. Binding seen in cells or lysates may run through a third protein. Some entries that bind do so weakly or less than the wild type.

Regarding “CXCR4-EGFP (CXC chemokine receptor 4 tagged with enhanced green fluorescent protein at the C-terminus) (from UniProt P61073-1 1-352)”, the binding result in test [1] is given as “binds”. Still for that read-out and setting: to “CXCR4-mNLS-EGFP (CXCR4 with the nuclear localization sequence 146-RPRK-149 mutated to AAAA, tagged with EGFP at the C-terminus) (from UniProt P61073-1 1-352) (receptor)” belongs “binds”. For “FLAG-tagged HIF-1α (hypoxia-inducible factor-1α) (from UniProt Q16665 1-826)”, the binding result in test [2] and in test [3] was “binds” throughout.

Regarding “HIF-1α (endogenous, ACHN cells) (from UniProt Q16665 1-826)”, the binding result in test [4] was “binds”.

The record behind these values is publication PMC6367212.
